# PMC12670160, “A drug-repurposing screen of FDA- and EMA-approved drugs identifies two NF-κB inhibitors active against eumycetoma” (Journal of Antimicrobial Chemotherapy, 2025)
# Counter-ions that a name gives are not always drawn. Like-named read-outs stand apart in the source and are kept apart here. About 130 (2.5%) of roughly 5,300 compounds showed an effect of 50% or more. Some of the results follow.
# Tested on: M. mycetomatis strain mm55
# Conditions: primary screen, metabolic activity vs growth control, 96 h, 2 µM, inhibitor
SMILES,% viability [%],% viability (Madurella mycetomatis metabolic activity at 2µM (%)) [%]
"COc1cccc(OCCCN)c1-c1cc(Nc2cnc(C#N)cn2)n[nH]1 [ONC0001824, prexasertib dihydrochloride]",106.5,
"Fc1ccc(-n2cc(CCCCN3CCC4(CC3)OCc3ccccc34)c3ccccc32)cc1 [ONC0002044, siramesine hydrochloride]",116.1,
"c1ccc2c(c1)OCC(C1=NCCN1)O2 (stereo not shown) [ONC0005424, idazoxan hydrochloride]",108.3,
"NC(N)=NCCC[C@H](N)C(=O)NCC(=O)N[C@@H](CC(=O)O)C(=O)N[C@@H](CO)C(=O)O [ONC0002282, argglyaspser]",101.1,
"CN(C)CCC(c1ccc(Cl)cc1)c1ccccn1 (stereo not shown) [ONC0004829, chlorpheniramine maleate]",80.68,
"OCC(O)CN1CCN(c2ccccc2)CC1 (stereo not shown) [ONC0003237, dropropizine]",84.34,
"COc1ccccc1N1CCN(CCN2C(=O)CC3(CCCC3)CC2=O)CC1 [ONC0002563, bmy7378]",52.22,
"CCN(CC)CCCCC1CCN(CC(=O)N2c3ccccc3C(=O)Nc3cccnc32)CC1 [ONC0003539, aqra741]",108,
"CC(C)CCNc1ncccc1C(=O)N1CCN(Cc2ccccc2)CC1 [ONC0001776, nsi189]",105.6,
"COc1ccc(COc2cc3oc(=O)c4cc(C(C)O)ccc4c3cc2OC)cc1 (stereo not shown) [ONC0004999, palomid 529]",90.49,
"C=C(C)[C@@H]1CCC(C)=C[C@H]1c1c(OC)cc(C)cc1OC [ONC0002995, o1918]",82.98,
"COC1=C(OC)C(=O)C(C/C=C(\C)CC/C=C(\C)CC/C=C(\C)CC/C=C(\C)CC/C=C(\C)CC/C=C(\C)CC/C=C(\C)CC/C=C(\C)CC/C=C(\C)CCC=C(C)C)=C(C)C1=O [ONC0005494, coenzymeq10]",87.43,
"Nc1ccc(F)cc1NC(=O)c1ccc(CNC(=O)/C=C/c2cccnc2)cc1 [ONC0001791, chidamide]",119.7,
"CCCCC[C@H](O)/C=C/[C@@H]1[C@H]2C/C(=C/CCCC(=O)O)O[C@H]2C[C@H]1O [ONC0005564, prostaglandin i2sodium]",72.27,
"COc1ccc2cc1Oc1ccc(cc1)C[C@H]1c3c(cc4c(c3Oc3cc5c(cc3OC)CCN(C)[C@@H]5C2)OCO4)CCN1C [ONC0004186, cepharanthine]",88.07,
"CC(C)N[C@@H]1CCn2c(=O)[nH]c3cccc(c32)[C@H]1O [ONC0001941, zilpaterolhcl]",67.69,
"CCC(C)C(CC)C(N)=O (stereo not shown) [ONC0005576, valnoctamide]",52.5,
"C=CCN1CCCC1CNC(=O)c1cc2[nH]nnc2cc1OC (stereo not shown) [ONC0005109, alizapride hydrochloride]",99.16,
"CN(C)CC/C=C1/c2ccccc2COc2ccccc21 [ONC0000649, doxepin hydrochloride]",114.1,
"CC(=O)NCCc1c(Cc2ccccc2)[nH]c2ccccc12 [ONC0000131, luzindole]",89.06,

SMILES,% viability [%],% viability (Madurella mycetomatis metabolic activity at 2µM (%)) [%]
"O=C(O)c1ccccc1Nc1cccc(OCc2ccc3ccccc3n2)c1 [ONC0001414, sr2640]",39.31,
"Nc1ncnc2c1nc(Br)n2[C@@H]1O[C@@H]2COP(=O)(O)O[C@H]2[C@H]1O [ONC0001655, 8bromocamp]",61.1,
"CC(C)(C)NC(=O)[C@@H]1CN(Cc2cccnc2)CCN1C[C@@H](O)C[C@@H](Cc1ccccc1)C(=O)N[C@H]1c2ccccc2C[C@H]1O [ONC0003454, indinavir]",88.37,
"O=C(Nc1ccc(C(F)(F)F)cn1)N1CCN(c2ncccc2C(F)(F)F)CC1 [ONC0000122, jnj17203212]",104,
"CC(=O)O[C@H]1Cc2ccccc2N(C(N)=O)c2ccccc21 [ONC0002100, eslicarbazepine acetate]",73.47,
"OC[C@H]1O[C@@H](Oc2cc3c(O)cc(O)cc3[o+]c2-c2ccc(O)c(O)c2)[C@H](O)[C@@H](O)[C@@H]1O [ONC0001073, kuromanin chloride]",60.47,
"O=C(O)c1ccc(N2C(=O)/C(=C/c3ccc(-c4ccc([N+](=O)[O-])cc4)o3)C=C2c2ccccc2)cc1 [ONC0005117, 4e1rcat]",73.26,
"CCOC(=O)c1ccc(N2NC(=O)/C(=C/c3ccc([N+](=O)[O-])o3)C2=O)cc1 [ONC0005037, pyr41]",64.91,
"COc1ccc(-c2cnc3c(-c4cccc5ncccc45)cnn3c2)cc1 [ONC0005150, ml347]",,135.6
"CCC[C@@H]1CC2=CC(=O)CC[C@]2(C)[C@H]2CC[C@@]3(C)[C@@H](CC[C@@]3(O)CCC(=O)O)[C@H]12 [ONC0001504, ru28318]",109.5,
"Cc1cc(/C=C2\SC(=O)N(c3ccccc3)C2=O)c(C)n1-c1cccnc1 [ONC0002552, icrt14]",66.69,
"COC(=O)Nc1nc2cc(C(=O)c3ccc(F)cc3)ccc2[nH]1 [ONC0004284, flubendazole]",56.28,
"CC[C@]1(O)C[C@@H]2CN(CCc3c([nH]c4ccccc34)[C@@](C(=O)OC)(c3cc4c(cc3OC)N(C)[C@H]3[C@@](O)(C(=O)OC)[C@H](OC(C)=O)[C@]5(CC)C=CCN6CC[C@]43[C@@H]65)C2)C1.O=S(=O)(O)O [ONC0001979, vinblastine sulfate]",92.29,
"O=C1c2ccccc2C(Cc2ccncc2)(Cc2ccncc2)c2ccccc21 [ONC0001701, xe991]",53.63,
"CC[N+]1(C)CCCC(OC(=O)C(O)(c2ccccc2)c2ccccc2)C1 (stereo not shown) [ONC0002856, pipenzolate bromide]",101.8,
"CC[C@@H]1C(=O)N(C)c2cnc(Nc3ccc(C(=O)NC4CCN(C)CC4)cc3OC)nc2N1C1CCCC1 [ONC0004589, bi 2536]",63.71,
"Cn1c(=O)c2c(ncn2C)n(C)c1=O [ONC0003256, caffeine]",77.94,
"CCN1CCN(c2cc(-c3ccc(F)cc3)c3c(n2)CCCCCC3)CC1 [ONC0004632, blonanserin lonasen]",79.97,
"CCO/N=C(/C(=O)N[C@@H]1C(=O)N2C(C(=O)O)=C(Sc3nc(-c4cc[n+](C)cc4)cs3)CS[C@H]12)c1nsc(NP(=O)(O)O)n1 [ONC0002991, ceftarolinefosamil]",80.17,
"Cc1cc(CN)cc(C)c1NC(=O)c1ccc(-c2cc(Cl)ccc2Cl)o1 [ONC0001490, cym50358]",73.53,

SMILES,% viability [%],% viability (Madurella mycetomatis metabolic activity at 2µM (%)) [%]
"Cc1c(OCC(F)(F)F)ccnc1C[S+]([O-])c1nc2ccccc2[nH]1 (stereo not shown) [ONC0002455, lansoprazole]",69.49,
"CNCCCOc1cc(F)c(-c2c(Cl)nc3ncnn3c2N[C@@H](C)C(F)(F)F)c(F)c1 [ONC0002250, cevipabulin]",113.6,
"COc1ccc(NS(=O)(=O)c2ccc(N=Nc3ccc(O)c(C(=O)O)c3)cc2)nn1 [ONC0003399, salazodine]",47.95,
"Cc1ccc2c(c1)Cc1c(C(=O)NC3CCCCC3)nn(-c3ccc(Cl)cc3Cl)c1-2 [ONC0003630, gp2a]",52.61,
"O=C(O)c1ccc(S(=O)(=O)N(Cc2ccc(OC(F)(F)F)cc2)c2ncc(C(F)(F)F)cc2Cl)cc1 [ONC0001283, rq00203078]",78.18,
"c1ccc([C@@H]2C[C@H]2NC2CCNCC2)cc1 [ONC0003011, gsklsd1]",91.17,
"Cc1nnc2n1-c1sc(CCC(=O)N3CCOCC3)cc1C(c1ccccc1Cl)=NC2 [ONC0003000, apafant]",64.39,
"Fc1ccc(-c2cncc(CN3CCN(c4cccc5c4OCCO5)CC3)c2)cc1 [ONC0001790, adoprazine]",89.4,
"CC(C)(C)NCC(O)c1ccc(O)c(CO)c1 (stereo not shown) [ONC0000658, albuterol]",133.9,
"Cc1sc2c(c1C)C(c1ccc(Cl)cc1)=N[C@@H](CC(=O)Nc1ccc(OCCOCCOCCOCCNc3cccc4c3C(=O)N(C3CCC(=O)NC3=O)C4=O)cc1)c1nnc(C)n1-2 (stereo partly shown) [ONC0002091, arv825]",72.49,
"CC(C)N1CCN(c2ccc(OC[C@@H]3CO[C@@](Cn4cncn4)(c4ccc(Cl)cc4Cl)O3)cc2)CC1 [ONC0002390, terconazole]",66.82,
"CCS(=O)(=O)N1CCC([C@@H](C)n2c(C)c(C(=O)NCc3c(OC)cc(C)[nH]c3=O)c3ccccc32)CC1 [ONC0002050, cpi169]",60.75,
"Fc1ccc(CNc2ncnc3ccc(F)cc23)cc1 [ONC0002667, spautin1]",68.76,
"CCn1c(=O)n(C2=C(CO)CN(CC3CCCCCCC3)CC2)c2ccccc21 [ONC0003153, trap101]",95.21,
"Oc1ccc(C(O)CNCCCCCCNCC(O)c2ccc(O)c(O)c2)cc1O (stereo not shown) [ONC0004677, hexoprenaline sulphate]",88.54,
"CCc1c(C(=O)NCCc2ccc(N3CCCCC3)cc2)[nH]c2ccc(Cl)cc12 [ONC0004879, org 27569]",111.9,
"Nc1ncnc2c1ncn2[C@@H]1O[C@H](C[C@@H](N)CC[C@H](N)C(=O)O)[C@@H](O)[C@H]1O [ONC0004131, sinefungin]",94.43,
"COc1ccccc1NC(=O)OCC1CCN(C(=O)OC(C)(C)C)CC1 [ONC0002504, gw542573x]",75.06,

# One compound at a time, as listed above:
# `COc1ccc(NS(=O)(=O)c2ccc(N=Nc3ccc(O)c(C(=O)O)c3)cc2)nn1` [ONC0003399, salazodine] is listed with % viability [%]: 47.95
# `Fc1ccc(-c2cncc(CN3CCN(c4cccc5c4OCCO5)CC3)c2)cc1` [ONC0001790, adoprazine] is listed with % viability [%]: 89.4
# `CC(C)(C)NCC(O)c1ccc(O)c(CO)c1` (stereo not shown) [ONC0000658, albuterol] is listed with % viability [%]: 133.9
